{
  "sequences": {"note": "The chains behind the UniProt entries cited, without tags or fusion partners.", "UniProt P12868": "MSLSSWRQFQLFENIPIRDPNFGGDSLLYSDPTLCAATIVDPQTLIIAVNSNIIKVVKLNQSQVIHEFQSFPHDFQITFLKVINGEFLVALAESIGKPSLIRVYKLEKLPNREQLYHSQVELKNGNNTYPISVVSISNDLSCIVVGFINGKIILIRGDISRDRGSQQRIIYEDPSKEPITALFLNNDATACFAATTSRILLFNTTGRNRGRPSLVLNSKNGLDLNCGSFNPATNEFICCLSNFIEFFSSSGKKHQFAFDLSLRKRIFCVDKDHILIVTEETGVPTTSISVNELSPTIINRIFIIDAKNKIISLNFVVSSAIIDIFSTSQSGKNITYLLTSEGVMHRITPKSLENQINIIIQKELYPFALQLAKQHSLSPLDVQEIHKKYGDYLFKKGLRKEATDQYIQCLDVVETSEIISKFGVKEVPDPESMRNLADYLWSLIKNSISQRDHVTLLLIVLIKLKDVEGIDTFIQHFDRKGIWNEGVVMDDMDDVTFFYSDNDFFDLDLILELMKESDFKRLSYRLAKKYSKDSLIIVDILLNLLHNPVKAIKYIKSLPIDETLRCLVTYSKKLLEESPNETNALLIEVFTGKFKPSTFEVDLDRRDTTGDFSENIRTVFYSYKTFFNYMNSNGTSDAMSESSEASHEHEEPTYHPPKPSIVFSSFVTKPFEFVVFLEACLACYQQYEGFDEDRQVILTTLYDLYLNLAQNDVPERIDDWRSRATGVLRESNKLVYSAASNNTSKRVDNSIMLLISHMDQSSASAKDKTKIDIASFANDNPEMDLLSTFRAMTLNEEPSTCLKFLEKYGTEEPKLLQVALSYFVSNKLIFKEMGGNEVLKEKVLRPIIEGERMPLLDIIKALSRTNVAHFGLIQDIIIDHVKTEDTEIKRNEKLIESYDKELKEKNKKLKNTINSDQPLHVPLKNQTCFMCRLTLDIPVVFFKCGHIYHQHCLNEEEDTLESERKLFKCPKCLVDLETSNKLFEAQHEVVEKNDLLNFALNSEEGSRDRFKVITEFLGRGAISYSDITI", "UniProt P15731": "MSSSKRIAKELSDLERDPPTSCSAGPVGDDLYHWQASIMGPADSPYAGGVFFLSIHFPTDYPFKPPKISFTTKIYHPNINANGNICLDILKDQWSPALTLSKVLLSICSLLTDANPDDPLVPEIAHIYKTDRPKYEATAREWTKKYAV", "UniProt P22216": "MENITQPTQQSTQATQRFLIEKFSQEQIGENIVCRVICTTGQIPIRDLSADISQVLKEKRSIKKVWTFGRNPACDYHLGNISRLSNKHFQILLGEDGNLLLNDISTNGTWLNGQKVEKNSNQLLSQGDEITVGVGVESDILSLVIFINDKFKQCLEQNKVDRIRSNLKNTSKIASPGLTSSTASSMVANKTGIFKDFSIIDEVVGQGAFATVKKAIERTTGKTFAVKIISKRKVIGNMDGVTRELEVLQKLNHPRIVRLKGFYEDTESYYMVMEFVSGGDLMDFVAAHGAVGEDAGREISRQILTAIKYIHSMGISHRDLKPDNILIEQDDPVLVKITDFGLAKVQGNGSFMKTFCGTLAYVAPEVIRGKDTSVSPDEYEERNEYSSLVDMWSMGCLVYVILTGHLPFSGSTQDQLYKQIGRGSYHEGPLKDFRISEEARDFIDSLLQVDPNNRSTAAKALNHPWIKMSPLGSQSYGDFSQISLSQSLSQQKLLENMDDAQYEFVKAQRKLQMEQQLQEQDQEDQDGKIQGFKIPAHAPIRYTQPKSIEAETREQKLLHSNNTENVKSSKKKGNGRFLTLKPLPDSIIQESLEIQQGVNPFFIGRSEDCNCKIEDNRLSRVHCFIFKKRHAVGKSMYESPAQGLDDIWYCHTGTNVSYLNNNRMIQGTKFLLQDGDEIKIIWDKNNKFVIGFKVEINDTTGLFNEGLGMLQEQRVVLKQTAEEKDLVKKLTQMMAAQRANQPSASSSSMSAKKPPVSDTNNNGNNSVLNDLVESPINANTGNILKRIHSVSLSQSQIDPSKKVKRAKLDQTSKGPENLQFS"},
  "source": "paper PMC3343073",
  "molecules": {"B1": {"name": "HIS6-HA-Protein A tagged Hel1 (YKR017C) (enzyme, UniProt P36113 1-551)", "chain": "MSSGTENDQFYSFDESDSSSIELYESHNTSEFTIHGLVFPKLISVTSQDSEFDINEDEDGVDTIYEGMLDAPLTKNNKRILCEGSVPNLSYECLTTKGIFERMLQRVDHLQPIFAIPSADILILLQHYDWNEERLLEVWTEKMDELLVELGLSTTANIKKDNDYNSHFREVEFKNDFTCIICCDKKDTETFALECGHEYCINCYRHYIKDKLHEGNIITCMDCSLALKNEDIDKVMGHPSSSKLMDSSIKSFVQKHNRNYKWCPFADCKSIVHLRDTSSLPEYTRLHYSPFVKCNSFHRFCFNCGFEVHSPADCKITTAWVKKARKESEILNWVLSHTKECPKCSVNIEKNGGCNHMVCSSCKYEFCWICEGPWAPHGKNFFQCTMYKNNEDNKSKNPQDANKTLKKYTFYYRLFNEHEVSAKLDWNLGQTLGTKVHALQERIGISWIDGQFLSESLKVLNEGRTVLKWSFAVAYYSDASHNLTKIFVDNQMLLANAVESLSELLQIKTPEVIMKRRPEFYNKAGYVENRTTALMECGRELLCKGICKAAE"}, "B2": {"name": "HIS6-HA-Protein A tagged Snt2 (enzyme, UniProt P53127 1-1403)", "chain": "MPKEEDFQLPRRREAAKNVNYNEMEIDTKLVQQIQIAEKSGAKTKGSNSQTPRNCKRTSNPASRNEKFKYQKFLHDKNTCWNFIPTLPPSFRKNSRFSNILDLDDAMIDLKKMSLFNTESVLLSANDTIYMISEPAGEPYYVGRVVNFVSKPEFSNTIHEAIKTTSVFPAKFFQVRMNWFYRPRDIQEHVNTFNPRLVYASLHQDICPISSYRGKCSIFHKDEVFDVLPNEKECIIRPNIFYFDELFDRYTLKYYKVYSTDKILNKWNSKSPFLYVLNRRFRYIYTEPKYPLENVLKKYVFHELEVNELSPADYQWDKRCQFCKEWCIQKESLSCDECGVCAHLYCMDPPLDRKPNKDVVWTCFSCLQKQQGTKDSHVRFLEEQALELDFIRSVRQKIEEISSKAIKENVGYNTENCWFQYLGIYSISHIGDALNDSMFFPYPFKPSRVGVKYQWNGCNHNVPWRRNSYISANSEEERGSTKTSELAWVLDASKITTRKLSEYIEQCKSEICPILNVRGETCNFIDVVLKNLLFTNYDTAEAFKKCKRELSRKFLKEPSFTAVEIRKFEEAVEKFGSELRPVCEYVGTQPMSMIVRFYYNWKKTERGLTVRGKLSKLSKNKRKKEIANHENDVETKYIDDSSFDTEKLSLAESSFQCMFCKTDYSPMWYRVTGGSDDEKIKIRMQTGVNEKTEISEKSPAHSKKNEKLGALCIRCARMWRRYAIKWVPPLETLRKITGTCQNSFYSAIEGIIEENNTNKFTLSPFQAHNKLLEWELVQDSELIIRQRMKVYKNPNSFVKMKRYSMTFHTQLYKMAVRSYRKNEFHPETMQRDLELFIEDNKEVRKAIPEQKPERAKNTKDEFPVNIIRQSPGTIKTSDTSRNRKCNDVFIEKASNNNIPKITNASNDLIEISIKTGGSSSGSVSVDKGFKFVKFDNKTFQRLRNSLKLVNNKLPKYNEPSTKKIKMINDIALSNPLNEPNGASYNYTVISHSKETSVALEKYHDGNKPSKMLEKDMILKHTKNKPKNPDTAWANNSARTFCSVCKEKFNDNDNYEVVCGNCGLTVHYFCYAIKLPKDMKKNTNLKTFKWLCDPCSNDLNPIISTTYQCSMCPTKDYDYDRYRSQSFKICPDALKCTSLGTWVHLVCSLFNEDIKYGNGQSMQPALNTTAVLIKHSRFTCGVCRINGGGLVKCNKCQYRYHITCAQNSSNFKLMFEKKNMSVDTTLPCIKDVKLNDTYTLRPILICDRHDISLEGNELYPLSYKPQHTLSYIEQYCRYYKCESDHSLVELRYFEQLRLRHGEMPGNSHDSAIKPKIYVLPFERTCPHCGTNKSLYWYEDIICHSCNLRSGAQELDFDSASANISNDNGLPVEITQQLMEGIEPAMFDIDISEAGTDKNTHPSSQ"}},
  "key": {"[1]": {"target": "T1, HIS6-HA-Protein A tagged Snt2 (S. cerevisiae) (UniProt P53127)", "T1 sequence": "B2 chain", "experiment": "co-IP; HA-tagged E3 ligases immunoprecipitated with magnetic beads conjugated to HA.11 antibodies from 1 liter cultures; endogenous histones H3 and H4 detected with polyclonal antibodies"}, "[2]": {"target": "T2, HIS6-HA-Protein A tagged Hel1 (YKR017C) (S. cerevisiae) (UniProt P36113)", "T2 sequence": "B1 chain", "experiment": "co-IP; HA-tagged E3 ligases immunoprecipitated with magnetic beads conjugated to HA.11 antibodies from 1 liter cultures; endogenous histones H3 and H4 detected with polyclonal antibodies"}, "[3]": {"target": "T3, HIS6-HA-Protein A tagged Hel2 (YDR266C) (S. cerevisiae) (UniProt Q05580)", "T3 sequence": "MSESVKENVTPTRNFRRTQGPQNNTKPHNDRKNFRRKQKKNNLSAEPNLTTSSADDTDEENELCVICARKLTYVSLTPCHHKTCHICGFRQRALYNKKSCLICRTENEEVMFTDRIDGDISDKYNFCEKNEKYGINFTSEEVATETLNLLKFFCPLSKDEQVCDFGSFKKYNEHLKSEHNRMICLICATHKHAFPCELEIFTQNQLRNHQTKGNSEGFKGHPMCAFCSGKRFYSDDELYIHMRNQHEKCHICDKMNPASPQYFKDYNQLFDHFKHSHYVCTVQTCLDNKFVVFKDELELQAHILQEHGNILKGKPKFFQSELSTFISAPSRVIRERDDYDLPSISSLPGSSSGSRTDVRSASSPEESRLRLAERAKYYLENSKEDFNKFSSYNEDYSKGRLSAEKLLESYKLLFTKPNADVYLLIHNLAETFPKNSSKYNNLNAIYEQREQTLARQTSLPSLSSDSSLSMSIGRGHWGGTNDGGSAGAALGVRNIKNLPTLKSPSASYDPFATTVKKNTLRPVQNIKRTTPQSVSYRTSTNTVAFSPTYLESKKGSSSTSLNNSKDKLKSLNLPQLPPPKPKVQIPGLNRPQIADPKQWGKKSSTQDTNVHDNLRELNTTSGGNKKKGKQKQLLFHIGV", "experiment": "co-IP; HA-tagged E3 ligases immunoprecipitated with magnetic beads conjugated to HA.11 antibodies from 1 liter cultures; endogenous histones H3 and H4 detected with polyclonal antibodies"}, "[4]": {"target": "HIS6-HA-Protein A tagged Pep5 (S. cerevisiae) (UniProt P12868)", "experiment": "co-IP; HA-tagged E3 ligases immunoprecipitated with magnetic beads conjugated to HA.11 antibodies from 1 liter cultures; endogenous histones H3 and H4 detected with polyclonal antibodies"}, "[5]": {"target": "T1, HIS6-HA-Protein A tagged Snt2 (S. cerevisiae)", "experiment": "co-IP; reciprocal immunoprecipitation of the Ubc4-MYC / HA-tagged E3 ligase pairs; data not shown"}, "[6]": {"target": "T2, HIS6-HA-Protein A tagged Hel1 (YKR017C) (S. cerevisiae)", "experiment": "co-IP; reciprocal immunoprecipitation of the Ubc4-MYC / HA-tagged E3 ligase pairs; data not shown"}, "[7]": {"target": "T3, HIS6-HA-Protein A tagged Hel2 (YDR266C) (S. cerevisiae)", "experiment": "co-IP; reciprocal immunoprecipitation of the Ubc4-MYC / HA-tagged E3 ligase pairs; data not shown"}, "[8]": {"target": "HIS6-HA-Protein A tagged Pep5 (S. cerevisiae) (UniProt P12868)", "experiment": "co-IP; reciprocal immunoprecipitation of the Ubc4-MYC / HA-tagged E3 ligase pairs; data not shown"}, "[9]": {"target": "MYC13-tagged Ubc4 (S. cerevisiae) (UniProt P15731)", "experiment": "co-IP; Ubc4-MYC immunoprecipitated with anti-MYC EZ View beads (Sigma) from whole cell extracts of 0.5 liter cultures; HA-tagged E3 ligases detected with HA.11 antibodies"}, "[10]": {"target": "T4, Tandem Affinity Purification (TAP) tagged Snt2 (S. cerevisiae) (UniProt P53127)", "T4 sequence": "B2 chain", "experiment": "co-IP; TAP tagged Pep5 or Snt2 immunoprecipitated from 3 liter cultures of strains carrying FLAG-tagged Rad53; Rad53 detected with FLAG antibodies"}, "[11]": {"target": "T5, MYC tagged Hel2 (S. cerevisiae) (UniProt Q05580)", "T5 sequence": "T3 sequence", "experiment": "co-IP; MYC tagged Hel1 or Hel2 immunoprecipitated with MYC antibody beads from 3 liter cultures of strains carrying FLAG-tagged Rad53; Western blot"}, "[12]": {"target": "T6, MYC tagged Hel1 (S. cerevisiae) (UniProt P36113)", "T6 sequence": "B1 chain", "experiment": "co-IP; MYC tagged Hel1 or Hel2 immunoprecipitated with MYC antibody beads from 3 liter cultures of strains carrying FLAG-tagged Rad53; Western blot"}},
  "note": "Results are given in words; binding and its absence hold for the method and conditions named. Binding seen in cells or lysates may run through a third protein. Some results given as binding are weak or reduced against the parent protein; the word gives no strength. For some assays here: Sequences can lack the tags named with a protein.",
  "data": [
    {"molecule": "histone H3 (endogenous) (from UniProt P61830 1-136)", "values": [
      {"measurement": "binding", "setting": "[1]", "value": "binds"},
      {"measurement": "binding", "setting": "[2]", "value": "binds"},
      {"measurement": "binding", "setting": "[3]", "value": "binds"},
      {"measurement": "binding", "setting": "[4]", "value": "binds"}
    ]},
    {"molecule": "MYC13-tagged Ubc4 (from UniProt P15731 1-148) (enzyme)", "values": [
      {"measurement": "binding", "setting": "[5]", "value": "binds"},
      {"measurement": "binding", "setting": "[6]", "value": "binds"},
      {"measurement": "binding", "setting": "[7]", "value": "binds"},
      {"measurement": "binding", "setting": "[8]", "value": "binds"}
    ]},
    {"molecule": "HIS6-HA-Protein A tagged Pep5 (from UniProt P12868 1-1029) (enzyme)", "values": [
      {"measurement": "binding", "setting": "[9]", "value": "binds"}
    ]},
    {"molecule": "FLAG-tagged Rad53 (from UniProt P22216 1-821) (enzyme)", "values": [
      {"measurement": "binding", "setting": "[10]", "value": "binds"},
      {"measurement": "binding", "setting": "[11]", "value": "binds"},
      {"measurement": "binding", "setting": "[12]", "value": "binds"}
    ]},
    {"molecule": "B1", "values": [
      {"measurement": "binding", "setting": "[9]", "value": "binds"}
    ]},
    {"molecule": "B2", "values": [
      {"measurement": "binding", "setting": "[9]", "value": "binds"}
    ]}
  ]
}
